Patent publication US11834499
No constants are given. Whether binding was seen depends on the method and setting. Binding can be weak; no strength is given. Where a sequence is shown, tags or fusion partners need not be part of it. Values belong to the binder of their own block, whether it stands above or below them.

Protein sequences, listed by entry. Tags and fused reporters are not part of them. Lines headed by an entry give the natural chain unless they say otherwise; changes in a name come on top.
UniProt P08637: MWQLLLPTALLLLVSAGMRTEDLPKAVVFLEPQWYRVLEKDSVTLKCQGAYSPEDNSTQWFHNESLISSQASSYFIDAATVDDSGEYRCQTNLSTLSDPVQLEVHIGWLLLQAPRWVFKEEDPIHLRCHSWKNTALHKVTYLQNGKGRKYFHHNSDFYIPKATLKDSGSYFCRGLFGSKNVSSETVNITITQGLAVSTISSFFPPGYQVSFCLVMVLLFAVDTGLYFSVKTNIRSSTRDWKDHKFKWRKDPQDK

Molecular target: CD16A (UniProt P08637)
Test: flow cytometry, anti-His AF647 detection, Jurkat-Lucia-NFAT-CD16A cells

binding: binds
B1: 02-0358-h3-CD16A-His, CLDN18.2-CD16A TandAb (bispecific antibody)
chain: QVQLVQSGAEVKKPGESLKVSCKASGYTFTSYYMHWVRQAPGQGLEWMGIINPSGGSTSYAQKFQGRVTMTRDTSTSTVYMELSSLRSEDTAVYYCARGSAYYYDFADYWGQGTLVTVSSGGSGGSGGSDIVMTQSPDSLAVSLGERVTMNCKSSQSLFNSGNQRNYLTWYQQKPGQPPKLLIYWASTRESGVPDRFSGSGSGTDFTLTISSVQAEDVAVYYCQNVYIYPLTFGQGTKLEIKGGSGGSGGSEVQLVESGGGLVQPGGSLRLSCAVSGFTFSSFGMHWVRQAPGKGLEWVAYISSGTTNIYYADSVKGRFTVSRDNAKNSLYLQMNSLRAEDTAVYYCVRSGYYGNSLDYWGQGTLVTVSSGGSGGSGGSSYVLTQPSSVSVAPGQTATISCGGHNIGSKNVHWYQQRPGQSPVLVIYQDNKRPSGIPERFSGSNSGNTATLTISGTQAMDEADYYCQVWDNYSVLFGGGTKLTVLHHHHHH

binding: binds
B2: 02-0307-h4-CD16A_His, CLDN18.2-CD16A TandAb (bispecific antibody)
chain: QVQLVQSGAEVKKPGESLKVSCKASGYTFTSYYMHWVRQAPGQGLEWMGIINPSGGSTSYAQKFQGRVTMTRDTSTSTVYMELSSLRSEDTAVYYCARGSAYYYDFADYWGQGTLVTVSSGGSGGSGGSDIVMTQSPDSLAVSLGERVTMNCKSSQSLLNSGNQKNYLSWYQQKPGQPPKLLFYWASTRESGVPDRFSGSGSGTDFTLTISSVQAEDVAVYYCQNDYSYPFTFGQGTKLEIKGGSGGSGGSEVQLLESGGGLVQPGGSLRLSCAASGFTFSSYTMSWVRQAPGKGLEWVATIIIGGSYTYYADSVKGRFTISRDNSKNTLYLQMNSLRAEDTAVYYCTRLVKGNAMDYWGQGTLVTVSSGGSGGSGGSSYVLTQPSSVSVAPGQTATISCGGHNIGSKNVHWYQQRPGQSPVLVIYQDNKRPSGIPERFSGSNSGNTATLTISGTQAMDEADYYCQVWDNYSVLFGGGTKLTVLHHHHHH
